± gives the standard deviation of the averaged measurements. This is a noisy data set.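 In each well, ERalpha-negative HeLa cells were transfected with ERalpha, a reporter bearing two estrogen response elements, and one overexpressed, poorly characterized human cDNA. Genes reducing signal to the BRCA1 positive control level (roughly 0.6 of empty vector) or below were scored as repressor hits.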
The sequences below were run on ERE-luciferase reporter with exogenous ERalpha in HeLa cells (assay: relative ERE luciferase activity (Firefly/Renilla) upon cDNA overexpression, relative to empty vector (fold of empty vector); higher = stronger ERalpha transactivation (less repression)). Details: 17beta-estradiol: 10 nM; 12 h.

Point of comparison: “MKGFIDDANYSVGLLDEGTNLGNVIDNYVYEHTLTGKNAFFVGDLGKIVKKHSQWQNVVAQIKPFYTVKCNSAPAVLEILAALGTGFACSSKNEMALVQELGVPPENIIYISPCKQVSQIKYAAKVGVNILTCDNEIELKKIARNHPNAKVLLHIATEDNIGGEEGNMKFGTTLKNCRHLLECAKELDVQIIGVKFHVSSACKESQVYVHALSDARCVFDMAGEIGFTMNMLDIGGGFTGTEFQLEEVNHVISPLLDIYFPEGSGVKIISEPGSYYVSSAFTLAVNIIAKKVVENDKFPSGVEKTGSDEPAFMYYMNDGVYGSFASKLSEDLNTIPEVHKKYKEDEPLFTSSLWGPSCDELDQIVESCLLPELNVGDWLIFDNMGADSFHEPSAFNDFQRPAIYYMMSFSDWYEMQDAGITSDSMMKNFFFVPSCIQLSQEDSFSAEA [AZIN1]”, “relative ERE luciferase activity” value 1.12. Against it:
- MILNSLSLCYHNKLILAPMVRVGTLPMRLLALDYGADIVYCEELIDLKMIQCKRVVNEVLSTVDFVAPDDRVVFRTCEREQNRVVFQMGTSDAERALAVARLVENDVAGIDVNMGCPKQYSTKGGMGAALLSDPDKIEKILSTLVKGTRRPVTCKIRILPSLEDTLSLVKRIERTGIAAIAVHGRKREERPQHPVSCEVIKAIADTLSIPVIANGGSHDHIQQYSDIEDFRQATAASSVMVARAAMWNPSIFLKEGLRPLEEVMQKYIRYAVQYDNHYTNTKYCLCQMLREQLESPQGRLLHAAQSSREICEAFGLGAFYEETTQELDAQQARLSAKTSEQTGEPAEDTSGVIKMAVKFDRRAYPAQITPKMCLLEWCRREKLAQPVYETVQRPLDRLFSSIVTVAEQKYQSTLWDKSKKLAEQAAAIVCLRSQGLPEGRLGEESPSLHKRKREAPDQDPGGPRAQELAQPGDLCKKPFVALGSGEESPLEGW [DUS2L] — lower, 1.01
- MISPDPRPSPGLARWAESYEAKCERRQEIRESRRCRPNVTTCRQVGKTLRIQQREQLQRARLQQFFRRRNLELEEKGKAQHPQAREQGPSRRPGQVTVLKEPLSCARRISSPREQVTGTSSEVFPAQHPPPSGICRDLSDHLSSQAGGLPPQDTPIKKPPKHHRGTQTKAEGPTIKNDASQQTNYGVAVLDKEIIQLSDYLKEALQRELVLKQKMVILQDLLSTLIQASDSSWKGQLNEDKLKGKLRSLENQLYTCTQKYSPWGMKKVLLEMEDQKNSYEQKAKESLQKVLEEKMNAEQQLQSTQRSLALAEQKCEEWRSQYEALKEDWRTLGTQHRELESQLHVLQSKLQGADSRDLQMNQALRFLENEHQQLQAKIECLQGDRDLCSLDTQDLQDQLKRSEAEKLTLVTRVQQLQGLLQNQSLQLQEQEKLLTKKDQALPVWSPKSFPNEVEPEGTGKEKDWDLRDQLQKKTLQLQAKEKECRELHSELDNLSDEYLSCLRKLQHCREELNQSQQLPPRRQCGRWLPVLMVVIAAALAVFLANKDNLMI [TRAF3IP3] — lower, 0.539
- MKDRLQELKQRTKEIELSRDSHVSTTETEEQGVFLQQAVIYEREPVAERHLHEIQKLQESINNLADNVQKFGQQQKSLVASMRRFSLLKRESTITKEIKIQAEYINRSLNDLVKEVKKSEVENGPSSVVTRILKSQHAAMFRHFQQIMFIYNDTIAAKQEKCKTFILRQLEVAGKEMSEEDVNDMLHQGKWEVFNESLLTEINITKAQLSEIEQRHKELVNLENQIKDLRDLFIQISLLVEEQGESINNIEMTVNSTKEYVNNTKEKFGLAVKYKKRNPCRVLCCWCCPCCSSK [STX19] — higher, 1.17
- MKHTQSGQSTSPLVIDYTCRVCQMAFVFSSLIPLLLMTPVFCLGNTSECFQNFSQSHKCILMHSPPSAMAELPPSANTSVCSTLYFYGIAIFLGSFVLSLLTIMVLLIRAQTLYKKFVKSTGFLGSEQWAVIHIVDQRVRFYPVAFFCCWGPAVILMIIKLTKPQDTKLHMALYVLQALTATSQGLLNCGVYGWTQHKFHQLKQEARRDADTQTPLLCSQKRFYSRGLNSLESTLTFPASTSTIF [TMEM116] — within error, 1.17 ± 0.14
- MKITRQKHAKKHLGFFRNNFGVREPYQILLDGTFCQAALRGRIQLREQLPRYLMGETQLCTTRCVLKELETLGKDLYGAKLIAQKCQVRNCPHFKNAVSGSECLLSMVEEGNPHHYFVATQDQNLSVKVKKKPGVPLMFIIQNTMVLDKPSPKTIAFVKAVESGQLVSVHEKESIKHLKEEQGLVKNTEQSRRKKRKKISGPNPLSCLKKKKKAPDTQSSASEKKRKRKRIRNRSNPKVLSEKQNAEGE [C8orf53] — lower, 1.08
